No constants are given. Whether binding was seen depends on the method and setting. Some binding calls cover weakened binding; strength is not graded here.
Columns and labels:
Assay in all cases: peptide or protein array; only the binder purified
NuMA protein (human) = NuMA protein (human) (UniProt Q14980)
[1] = biological target: SAPS domain family, member 2 (SAPS2) (human) (UniProt O75170)
KIAA1931 protein (human) = KIAA1931 protein (human) (UniProt Q96PV7)
[2] = biological target: ZXD family zinc finger C (ZXDC) (human) (UniProt Q2QGD7)
[3] = biological target: Meis homeobox 2 (MEIS2) (human) (UniProt O14770)
[4] = biological target: Transcriptional regulator ATRX (human) (UniProt P46100)
[5] = biological target: T1, Polycomb group ring Finger 2 (PCGF2) (human) (UniProt P35227)
T1 sequence: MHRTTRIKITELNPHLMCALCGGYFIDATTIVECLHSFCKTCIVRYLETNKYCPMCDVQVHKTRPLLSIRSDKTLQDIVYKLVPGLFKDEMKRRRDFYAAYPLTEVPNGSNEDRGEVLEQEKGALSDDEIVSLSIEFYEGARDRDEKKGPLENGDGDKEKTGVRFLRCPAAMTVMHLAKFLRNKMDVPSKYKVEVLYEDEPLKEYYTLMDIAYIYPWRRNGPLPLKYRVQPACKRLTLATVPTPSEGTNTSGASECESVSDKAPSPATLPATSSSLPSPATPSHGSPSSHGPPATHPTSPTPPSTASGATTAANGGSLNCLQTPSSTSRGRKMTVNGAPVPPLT

Amino acid sequences for entries named in this document (tags omitted). A change or cut given only in a name is not applied to a line headed by its entry. Chains listed by the source or under a name are the forms on record and can include a tag or linker.
SAPS domain family, member 2 (SAPS2) (O75170, form named): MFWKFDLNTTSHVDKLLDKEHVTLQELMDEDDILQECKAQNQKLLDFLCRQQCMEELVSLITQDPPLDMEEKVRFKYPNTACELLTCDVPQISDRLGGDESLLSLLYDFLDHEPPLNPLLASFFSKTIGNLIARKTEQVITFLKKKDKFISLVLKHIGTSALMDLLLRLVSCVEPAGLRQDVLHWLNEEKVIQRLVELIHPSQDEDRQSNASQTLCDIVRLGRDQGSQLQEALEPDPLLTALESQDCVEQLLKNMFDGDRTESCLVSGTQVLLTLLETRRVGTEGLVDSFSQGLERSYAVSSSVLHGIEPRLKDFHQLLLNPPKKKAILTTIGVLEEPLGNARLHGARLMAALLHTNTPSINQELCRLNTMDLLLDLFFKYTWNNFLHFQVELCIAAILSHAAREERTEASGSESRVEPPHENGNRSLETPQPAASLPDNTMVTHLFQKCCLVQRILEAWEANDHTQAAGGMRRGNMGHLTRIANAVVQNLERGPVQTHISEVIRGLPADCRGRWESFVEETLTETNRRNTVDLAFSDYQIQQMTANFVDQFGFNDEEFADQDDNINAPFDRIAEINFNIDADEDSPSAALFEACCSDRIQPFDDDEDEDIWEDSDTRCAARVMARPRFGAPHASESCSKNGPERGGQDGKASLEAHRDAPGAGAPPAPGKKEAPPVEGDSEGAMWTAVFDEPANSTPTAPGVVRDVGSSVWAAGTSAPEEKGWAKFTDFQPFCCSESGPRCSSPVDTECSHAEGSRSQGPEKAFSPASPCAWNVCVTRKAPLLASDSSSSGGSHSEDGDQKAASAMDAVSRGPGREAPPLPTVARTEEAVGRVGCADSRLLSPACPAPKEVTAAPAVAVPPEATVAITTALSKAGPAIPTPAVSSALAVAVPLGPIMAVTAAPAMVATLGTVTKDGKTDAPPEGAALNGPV
UniProt Q96PV7: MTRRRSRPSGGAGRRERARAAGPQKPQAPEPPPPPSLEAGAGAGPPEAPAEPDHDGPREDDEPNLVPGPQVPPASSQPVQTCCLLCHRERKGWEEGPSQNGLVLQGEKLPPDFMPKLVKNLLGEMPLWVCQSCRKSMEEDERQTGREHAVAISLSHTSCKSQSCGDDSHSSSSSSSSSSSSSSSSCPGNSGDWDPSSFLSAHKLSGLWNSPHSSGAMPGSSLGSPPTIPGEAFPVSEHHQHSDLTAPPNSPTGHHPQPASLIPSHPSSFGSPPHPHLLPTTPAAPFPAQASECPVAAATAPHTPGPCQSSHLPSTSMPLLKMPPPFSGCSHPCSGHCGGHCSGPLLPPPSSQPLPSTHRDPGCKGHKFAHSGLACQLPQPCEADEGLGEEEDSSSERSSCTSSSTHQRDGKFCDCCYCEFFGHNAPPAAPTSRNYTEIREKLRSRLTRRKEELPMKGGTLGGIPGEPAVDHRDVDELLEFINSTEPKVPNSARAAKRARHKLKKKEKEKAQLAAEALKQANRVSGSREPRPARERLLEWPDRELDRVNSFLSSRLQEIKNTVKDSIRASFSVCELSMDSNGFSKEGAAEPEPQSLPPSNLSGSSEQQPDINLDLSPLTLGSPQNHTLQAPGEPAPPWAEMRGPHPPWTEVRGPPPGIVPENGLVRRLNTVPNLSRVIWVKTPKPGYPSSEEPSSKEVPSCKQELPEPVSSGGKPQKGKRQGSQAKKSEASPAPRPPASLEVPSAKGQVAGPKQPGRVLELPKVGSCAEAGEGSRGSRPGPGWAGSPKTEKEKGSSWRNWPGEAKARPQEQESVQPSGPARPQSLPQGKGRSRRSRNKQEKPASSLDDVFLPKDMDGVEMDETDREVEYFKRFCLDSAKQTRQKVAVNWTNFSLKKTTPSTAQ
ZXD family zinc finger C (ZXDC) (Q2QGD7, form named): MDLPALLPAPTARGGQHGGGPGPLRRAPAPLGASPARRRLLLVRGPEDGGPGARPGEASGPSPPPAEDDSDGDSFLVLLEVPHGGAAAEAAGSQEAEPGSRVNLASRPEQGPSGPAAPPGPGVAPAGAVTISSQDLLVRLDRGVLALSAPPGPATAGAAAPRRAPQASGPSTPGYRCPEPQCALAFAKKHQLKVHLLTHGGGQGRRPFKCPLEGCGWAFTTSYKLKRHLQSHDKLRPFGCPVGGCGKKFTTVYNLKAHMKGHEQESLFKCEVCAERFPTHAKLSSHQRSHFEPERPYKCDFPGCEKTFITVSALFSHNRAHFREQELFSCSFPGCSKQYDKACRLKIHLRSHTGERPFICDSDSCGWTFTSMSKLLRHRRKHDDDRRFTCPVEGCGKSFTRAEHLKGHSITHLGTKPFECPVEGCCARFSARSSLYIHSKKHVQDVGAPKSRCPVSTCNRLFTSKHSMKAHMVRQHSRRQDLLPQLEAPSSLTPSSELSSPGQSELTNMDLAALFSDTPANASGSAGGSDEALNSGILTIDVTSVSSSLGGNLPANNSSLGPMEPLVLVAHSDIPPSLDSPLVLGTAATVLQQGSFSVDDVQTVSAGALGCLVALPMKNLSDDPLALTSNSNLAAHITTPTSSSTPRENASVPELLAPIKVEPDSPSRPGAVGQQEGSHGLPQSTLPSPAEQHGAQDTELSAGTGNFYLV
Meis homeobox 2 (MEIS2) (O14770, form named): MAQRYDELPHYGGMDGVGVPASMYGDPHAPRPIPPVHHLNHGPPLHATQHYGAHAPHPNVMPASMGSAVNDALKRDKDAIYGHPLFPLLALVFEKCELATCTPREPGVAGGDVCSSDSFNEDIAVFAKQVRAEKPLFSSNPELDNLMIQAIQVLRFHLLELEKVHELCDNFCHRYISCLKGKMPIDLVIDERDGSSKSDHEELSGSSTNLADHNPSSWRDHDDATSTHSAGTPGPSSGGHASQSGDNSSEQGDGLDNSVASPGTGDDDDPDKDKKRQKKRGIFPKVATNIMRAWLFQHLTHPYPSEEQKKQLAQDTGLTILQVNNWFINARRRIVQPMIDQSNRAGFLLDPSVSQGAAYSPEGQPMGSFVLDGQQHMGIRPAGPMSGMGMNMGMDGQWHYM
UniProt P46100: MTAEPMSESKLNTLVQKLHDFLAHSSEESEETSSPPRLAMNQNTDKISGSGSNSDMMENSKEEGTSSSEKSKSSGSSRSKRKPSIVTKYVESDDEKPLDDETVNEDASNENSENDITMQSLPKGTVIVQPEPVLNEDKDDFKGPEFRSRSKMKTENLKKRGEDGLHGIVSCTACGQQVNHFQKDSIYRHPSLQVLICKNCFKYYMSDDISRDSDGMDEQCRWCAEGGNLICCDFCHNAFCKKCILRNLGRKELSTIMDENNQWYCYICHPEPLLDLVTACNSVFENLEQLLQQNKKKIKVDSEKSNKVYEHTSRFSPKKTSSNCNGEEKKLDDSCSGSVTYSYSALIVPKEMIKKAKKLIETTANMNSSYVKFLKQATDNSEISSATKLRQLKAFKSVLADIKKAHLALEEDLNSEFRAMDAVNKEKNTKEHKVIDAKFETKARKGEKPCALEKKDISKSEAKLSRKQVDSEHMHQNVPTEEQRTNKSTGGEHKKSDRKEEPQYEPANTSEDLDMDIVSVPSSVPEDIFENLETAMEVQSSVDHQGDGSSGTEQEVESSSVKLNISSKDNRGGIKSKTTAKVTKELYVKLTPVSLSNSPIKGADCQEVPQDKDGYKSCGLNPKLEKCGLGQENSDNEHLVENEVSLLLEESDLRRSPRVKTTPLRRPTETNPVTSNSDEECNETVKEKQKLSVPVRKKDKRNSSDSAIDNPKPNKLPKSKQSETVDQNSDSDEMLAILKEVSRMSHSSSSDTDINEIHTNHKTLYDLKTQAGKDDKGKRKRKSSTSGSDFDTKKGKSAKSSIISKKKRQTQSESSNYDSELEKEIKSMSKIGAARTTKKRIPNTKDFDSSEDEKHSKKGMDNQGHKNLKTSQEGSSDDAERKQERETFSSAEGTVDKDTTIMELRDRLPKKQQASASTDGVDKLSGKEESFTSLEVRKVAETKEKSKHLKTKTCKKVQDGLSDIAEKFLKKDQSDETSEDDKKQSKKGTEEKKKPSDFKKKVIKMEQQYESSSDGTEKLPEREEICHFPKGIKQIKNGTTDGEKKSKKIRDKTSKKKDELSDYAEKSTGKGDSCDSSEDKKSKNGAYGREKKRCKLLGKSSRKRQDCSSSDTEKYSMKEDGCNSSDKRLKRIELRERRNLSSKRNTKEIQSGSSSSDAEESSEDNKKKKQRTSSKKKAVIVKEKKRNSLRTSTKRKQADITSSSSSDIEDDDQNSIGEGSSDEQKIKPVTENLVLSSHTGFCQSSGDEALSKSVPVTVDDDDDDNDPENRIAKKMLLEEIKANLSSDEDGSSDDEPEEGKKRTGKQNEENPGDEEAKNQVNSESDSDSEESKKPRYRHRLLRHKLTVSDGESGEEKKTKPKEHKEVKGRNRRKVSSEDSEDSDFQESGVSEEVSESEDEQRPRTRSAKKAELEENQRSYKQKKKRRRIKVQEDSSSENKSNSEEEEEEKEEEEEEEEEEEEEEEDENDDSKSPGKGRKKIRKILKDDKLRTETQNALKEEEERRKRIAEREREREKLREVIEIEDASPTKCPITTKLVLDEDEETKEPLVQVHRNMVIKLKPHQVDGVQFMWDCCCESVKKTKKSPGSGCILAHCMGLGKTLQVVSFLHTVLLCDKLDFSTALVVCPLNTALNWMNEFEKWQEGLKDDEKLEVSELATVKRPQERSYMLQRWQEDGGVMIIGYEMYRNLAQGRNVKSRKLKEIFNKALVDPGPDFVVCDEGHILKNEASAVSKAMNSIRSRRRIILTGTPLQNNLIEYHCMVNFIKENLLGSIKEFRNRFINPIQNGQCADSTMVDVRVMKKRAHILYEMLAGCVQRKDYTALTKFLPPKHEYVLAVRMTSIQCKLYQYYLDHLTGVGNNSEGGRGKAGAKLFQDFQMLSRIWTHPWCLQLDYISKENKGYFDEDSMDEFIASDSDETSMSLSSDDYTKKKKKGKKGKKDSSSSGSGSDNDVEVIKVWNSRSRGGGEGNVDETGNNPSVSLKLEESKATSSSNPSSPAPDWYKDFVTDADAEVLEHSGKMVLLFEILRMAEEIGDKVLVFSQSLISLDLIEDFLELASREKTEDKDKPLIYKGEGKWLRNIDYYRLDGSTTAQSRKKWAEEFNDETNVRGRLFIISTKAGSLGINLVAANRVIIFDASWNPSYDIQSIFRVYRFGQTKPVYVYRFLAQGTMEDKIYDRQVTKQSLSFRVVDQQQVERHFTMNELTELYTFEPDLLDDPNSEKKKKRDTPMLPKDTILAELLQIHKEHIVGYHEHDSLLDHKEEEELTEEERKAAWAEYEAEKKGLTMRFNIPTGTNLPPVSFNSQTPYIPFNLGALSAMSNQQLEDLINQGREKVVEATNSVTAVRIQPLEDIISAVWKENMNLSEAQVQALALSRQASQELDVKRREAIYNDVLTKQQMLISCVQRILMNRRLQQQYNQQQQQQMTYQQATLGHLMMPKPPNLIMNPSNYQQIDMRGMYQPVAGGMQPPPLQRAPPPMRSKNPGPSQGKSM
UniProt Q92551: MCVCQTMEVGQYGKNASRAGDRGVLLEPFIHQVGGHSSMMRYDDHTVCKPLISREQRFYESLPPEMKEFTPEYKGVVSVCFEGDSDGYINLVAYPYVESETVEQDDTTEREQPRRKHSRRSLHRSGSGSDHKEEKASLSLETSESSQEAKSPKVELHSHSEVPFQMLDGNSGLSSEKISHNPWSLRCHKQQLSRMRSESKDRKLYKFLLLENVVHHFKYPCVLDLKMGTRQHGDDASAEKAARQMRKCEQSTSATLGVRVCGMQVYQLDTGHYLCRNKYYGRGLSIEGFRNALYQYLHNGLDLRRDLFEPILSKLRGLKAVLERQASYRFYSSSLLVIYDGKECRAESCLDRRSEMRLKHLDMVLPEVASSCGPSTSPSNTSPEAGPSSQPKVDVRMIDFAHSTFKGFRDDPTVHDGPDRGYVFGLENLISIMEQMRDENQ
UniProt P13202: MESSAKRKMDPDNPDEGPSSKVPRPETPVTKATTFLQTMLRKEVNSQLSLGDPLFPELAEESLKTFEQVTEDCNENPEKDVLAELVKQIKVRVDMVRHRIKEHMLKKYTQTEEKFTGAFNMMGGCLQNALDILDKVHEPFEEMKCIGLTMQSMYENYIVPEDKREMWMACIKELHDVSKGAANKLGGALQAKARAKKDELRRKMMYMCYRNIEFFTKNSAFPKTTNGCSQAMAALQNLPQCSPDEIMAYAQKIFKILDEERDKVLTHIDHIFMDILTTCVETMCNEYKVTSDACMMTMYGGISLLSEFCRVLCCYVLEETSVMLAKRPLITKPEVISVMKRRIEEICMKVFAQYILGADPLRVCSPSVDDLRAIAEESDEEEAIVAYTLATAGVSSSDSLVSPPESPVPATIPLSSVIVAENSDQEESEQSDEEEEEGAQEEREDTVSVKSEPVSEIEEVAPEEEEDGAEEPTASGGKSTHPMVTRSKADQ

[6] = biological target: Inositol hexaphosphate kinase 1 (IHPK1) (human) (UniProt Q92551)
[7] = biological target: Phosphatidylinositol-4-phosphate 5-kinase, type I, gamma (PIP5K1C) (human) (UniProt O60331)
Tensin 3 (TNS3) (human) = biological target: T2, Tensin 3 (TNS3) (human) (UniProt Q68CZ2)
T2 sequence: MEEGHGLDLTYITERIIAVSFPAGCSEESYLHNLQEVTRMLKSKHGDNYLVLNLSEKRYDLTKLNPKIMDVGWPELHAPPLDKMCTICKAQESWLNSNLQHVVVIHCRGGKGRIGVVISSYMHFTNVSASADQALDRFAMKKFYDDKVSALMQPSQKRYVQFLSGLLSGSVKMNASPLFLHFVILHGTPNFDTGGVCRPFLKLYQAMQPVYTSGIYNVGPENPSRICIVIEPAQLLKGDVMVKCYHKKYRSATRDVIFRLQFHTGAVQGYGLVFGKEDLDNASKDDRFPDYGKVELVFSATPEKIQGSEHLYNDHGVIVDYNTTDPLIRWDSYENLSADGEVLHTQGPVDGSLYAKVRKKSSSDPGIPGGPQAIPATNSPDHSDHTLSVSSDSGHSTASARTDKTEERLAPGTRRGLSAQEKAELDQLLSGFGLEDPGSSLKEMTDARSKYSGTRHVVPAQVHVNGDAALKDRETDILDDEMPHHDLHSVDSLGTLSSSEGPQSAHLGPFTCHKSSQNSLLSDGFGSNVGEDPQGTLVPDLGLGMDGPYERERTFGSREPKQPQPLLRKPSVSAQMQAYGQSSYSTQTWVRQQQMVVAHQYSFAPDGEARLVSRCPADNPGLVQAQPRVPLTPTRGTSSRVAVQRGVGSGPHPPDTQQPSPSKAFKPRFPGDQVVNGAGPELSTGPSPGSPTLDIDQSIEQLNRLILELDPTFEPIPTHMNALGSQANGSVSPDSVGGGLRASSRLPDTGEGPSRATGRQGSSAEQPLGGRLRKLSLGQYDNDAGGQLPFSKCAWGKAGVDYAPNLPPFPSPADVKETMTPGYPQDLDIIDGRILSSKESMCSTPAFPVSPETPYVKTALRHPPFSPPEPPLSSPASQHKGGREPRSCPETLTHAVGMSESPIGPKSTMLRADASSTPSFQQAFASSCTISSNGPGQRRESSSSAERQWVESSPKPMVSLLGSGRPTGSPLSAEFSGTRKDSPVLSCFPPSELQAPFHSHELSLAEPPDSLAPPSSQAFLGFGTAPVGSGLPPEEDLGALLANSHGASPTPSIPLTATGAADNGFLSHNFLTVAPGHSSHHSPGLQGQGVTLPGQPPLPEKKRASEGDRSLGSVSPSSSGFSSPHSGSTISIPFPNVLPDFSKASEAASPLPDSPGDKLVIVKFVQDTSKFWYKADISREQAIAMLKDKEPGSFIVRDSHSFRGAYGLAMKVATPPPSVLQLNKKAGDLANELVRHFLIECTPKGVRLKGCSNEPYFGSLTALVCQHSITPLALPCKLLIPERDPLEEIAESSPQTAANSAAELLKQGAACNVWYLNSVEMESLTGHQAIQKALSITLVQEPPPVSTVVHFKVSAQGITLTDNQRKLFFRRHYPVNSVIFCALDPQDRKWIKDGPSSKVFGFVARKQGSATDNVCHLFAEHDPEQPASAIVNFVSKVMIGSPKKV

[8] = biological target: Melanoma antigen family D 4 (MAGED4) (human) (UniProt Q96JG8)
[9] = biological target: T3, ADP-ribosylation factor binding protein GGA1 (human) (UniProt Q9UJY5)
T3 sequence: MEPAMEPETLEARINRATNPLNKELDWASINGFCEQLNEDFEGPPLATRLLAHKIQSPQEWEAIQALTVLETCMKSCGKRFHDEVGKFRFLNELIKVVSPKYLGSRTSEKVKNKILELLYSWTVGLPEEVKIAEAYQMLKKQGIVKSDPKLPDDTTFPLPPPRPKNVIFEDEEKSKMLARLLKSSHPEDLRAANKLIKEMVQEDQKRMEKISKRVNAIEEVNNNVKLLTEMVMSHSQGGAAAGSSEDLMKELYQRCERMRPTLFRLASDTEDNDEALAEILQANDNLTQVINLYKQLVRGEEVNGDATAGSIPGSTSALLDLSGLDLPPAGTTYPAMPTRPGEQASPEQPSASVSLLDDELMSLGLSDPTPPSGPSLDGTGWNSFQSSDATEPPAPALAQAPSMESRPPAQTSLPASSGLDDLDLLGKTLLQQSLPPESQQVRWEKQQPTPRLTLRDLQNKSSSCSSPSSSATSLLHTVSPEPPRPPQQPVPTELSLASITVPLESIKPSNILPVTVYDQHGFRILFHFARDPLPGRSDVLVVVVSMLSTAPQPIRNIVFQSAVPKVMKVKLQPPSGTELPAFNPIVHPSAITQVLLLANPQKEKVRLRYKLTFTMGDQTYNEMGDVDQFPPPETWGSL

Measured: binding

Human cytomegalovirus immediate-early protein 1 (from UniProt P13202 1-491)
binds: all assays above

— PMC3917433
